PubChem BioAssay AID743121 | NCATS – 2013
This is a random part of about 26,000 deposited reagents. 167 of all reagents (0.63%) were called active. 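Calls are per gene from RSA p-values that are not deposited; an individual active-marked siRNA can sensitise only weakly.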

Screen: 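Genes whose silencing strengthens cell killing by camptothecin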 (primary screen)
System: MDA-MB-231 cells, a human breast cancer line
Knock-down reagent: single siRNA against human genes, 20 nM siRNA (0.8 pmol per well)
Duration: 120 h (drug added 48 h after transfection, read 72 h later)
Conditions: camptothecin 20 nM (about EC30) for 72 h; vehicle 0.1% DMSO in parallel plates
Measurement: 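CellTiter-Glo ATP signal, scaled to control siRNA as percent viability; sensitisation given as log2 of untreated divided by camptothecin-treated viability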
Direction: log2 vehicle/camptothecin viability: higher = stronger sensitisation to camptothecin; viability with camptothecin and viability without drug: higher = more viable cells
Rule for the call: 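Active genes have an RSA gene-level p-value below 0.001, computed from the ratios of their separate siRNAs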

| Target gene | PubChem SID | log2 vehicle/camptothecin viability | viability with camptothecin (% of control) | viability without drug (% of control) | Outcome |
| --- | --- | --- | --- | --- | --- |
| MAPKBP1 (mitogen-activated protein kinase binding protein 1) | SID164444949 | -0.177 | 106 | 93.8 | inactive |
| MAPKBP1 (mitogen-activated protein kinase binding protein 1) | SID164444951 | -0.437 | 102 | 75.4 | inactive |
| MAPKBP1 (mitogen-activated protein kinase binding protein 1) | SID164444952 | -0.285 | 102 | 83.8 | inactive |
| MAPKBP1 (mitogen-activated protein kinase binding protein 1) | SID164444955 | -0.00354 | 77.8 | 77.6 | inactive |
| CHRNB1 (cholinergic receptor nicotinic beta 1 subunit) | SID164358450 | -0.216 | 109 | 93.6 | inactive |
| CHRNB1 (cholinergic receptor nicotinic beta 1 subunit) | SID164358451 | -0.464 | 66.7 | 48.3 | inactive |
| CHRNB1 (cholinergic receptor nicotinic beta 1 subunit) | SID164358452 | -0.439 | 90.9 | 67.1 | inactive |
| CHRNB1 (cholinergic receptor nicotinic beta 1 subunit) | SID164358453 | 0.0349 | 101 | 103 | inactive |
| NFKBIZ (NFKB inhibitor zeta) | SID164502145 | -0.439 | 53.2 | 39.3 | inactive |
| NFKBIZ (NFKB inhibitor zeta) | SID164502146 | -0.274 | 68.5 | 56.6 | inactive |
| NFKBIZ (NFKB inhibitor zeta) | SID164502150 | -0.288 | 95.8 | 78.5 | inactive |
| ARNT2 (aryl hydrocarbon receptor nuclear translocator 2) | SID164407385 | -0.232 | 66.8 | 56.9 | inactive |
| ARNT2 (aryl hydrocarbon receptor nuclear translocator 2) | SID164407386 | -0.435 | 86 | 63.6 | inactive |
| ARNT2 (aryl hydrocarbon receptor nuclear translocator 2) | SID164407387 | -0.24 | 74.3 | 62.9 | inactive |
| ARNT2 (aryl hydrocarbon receptor nuclear translocator 2) | SID164407388 | -0.107 | 45.4 | 42.2 | inactive |
| CNGA2 (cyclic nucleotide gated channel subunit alpha 2) | SID164358969 | -0.196 | 101 | 88 | inactive |
| CNGA2 (cyclic nucleotide gated channel subunit alpha 2) | SID164358970 | -0.603 | 69.2 | 45.6 | inactive |
| CNGA2 (cyclic nucleotide gated channel subunit alpha 2) | SID164358971 | -0.062 | 106 | 101 | inactive |
| CNGA2 (cyclic nucleotide gated channel subunit alpha 2) | SID164358972 | 0.189 | 56.2 | 64.1 | inactive |
| TRIM27 (tripartite motif containing 27) | SID164385186 | 0.516 | 39.1 | 55.9 | inactive |
| TRIM27 (tripartite motif containing 27) | SID164385187 | -0.164 | 63.3 | 56.5 | inactive |
| TRIM27 (tripartite motif containing 27) | SID164385190 | -0.304 | 59.5 | 48.2 | inactive |
| TRIM27 (tripartite motif containing 27) | SID164385191 | -0.0988 | 64 | 59.7 | inactive |
| DIDO1 (death inducer-obliterator 1) | SID164415481 | 1.28 | 24.6 | 59.7 | inactive |
| DIDO1 (death inducer-obliterator 1) | SID164415482 | -0.11 | 118 | 110 | inactive |
| DIDO1 (death inducer-obliterator 1) | SID164415483 | 0.244 | 73.4 | 86.9 | inactive |
| DIDO1 (death inducer-obliterator 1) | SID164415487 | -0.397 | 31.4 | 23.8 | inactive |
| ALDH1L1 (aldehyde dehydrogenase 1 family member L1) | SID164413703 | -0.244 | 114 | 96.1 | inactive |
| ALDH1L1 (aldehyde dehydrogenase 1 family member L1) | SID164413704 | 0.162 | 48.4 | 54.2 | inactive |
| ALDH1L1 (aldehyde dehydrogenase 1 family member L1) | SID164413708 | -0.0303 | 42 | 41.2 | inactive |
| ALDH1L1 (aldehyde dehydrogenase 1 family member L1) | SID164413710 | 0.0919 | 85.7 | 91.3 | inactive |
| UTS2B (urotensin 2B) | SID164606634 | -0.144 | 97.6 | 88.4 | inactive |
| UTS2B (urotensin 2B) | SID164606636 | -0.211 | 56.9 | 49.2 | inactive |
| UTS2B (urotensin 2B) | SID164606637 | -0.0973 | 46.5 | 43.4 | inactive |
| UTS2B (urotensin 2B) | SID164606638 | -0.0552 | 102 | 97.8 | inactive |
| RASA4 (RAS p21 protein activator 4) | SID164409072 | -0.0788 | 100 | 95.1 | inactive |
| RASA4 (RAS p21 protein activator 4) | SID164409074 | -0.385 | 48.1 | 36.9 | inactive |
| RASA4 (RAS p21 protein activator 4) | SID164409076 | -0.0636 | 66.6 | 63.7 | inactive |
| RASA4 (RAS p21 protein activator 4) | SID174316065 | -0.22 | 119 | 102 | inactive |
| P4HB (prolyl 4-hydroxylase subunit beta) | SID164379248 | -0.0962 | 122 | 114 | inactive |
| P4HB (prolyl 4-hydroxylase subunit beta) | SID164379255 | -0.104 | 82.2 | 76.5 | inactive |
| P4HB (prolyl 4-hydroxylase subunit beta) | SID174316010 | -0.279 | 90.5 | 74.6 | inactive |
| AREL1 (apoptosis resistant E3 ubiquitin protein ligase 1) | SID164406996 | -0.166 | 100 | 89.4 | inactive |
| AREL1 (apoptosis resistant E3 ubiquitin protein ligase 1) | SID164406997 | 0.577 | 14.5 | 21.6 | inactive |
| AREL1 (apoptosis resistant E3 ubiquitin protein ligase 1) | SID164407000 | -0.694 | 17.5 | 10.8 | inactive |
| TNFRSF14 (TNF receptor superfamily member 14) | SID164399702 | 0.131 | 36.6 | 40.1 | inactive |
| TNFRSF14 (TNF receptor superfamily member 14) | SID164399703 | -0.0586 | 97.3 | 93.4 | inactive |
| TNFRSF14 (TNF receptor superfamily member 14) | SID164399706 | 0.144 | 104 | 115 | inactive |
| TNFRSF14 (TNF receptor superfamily member 14) | SID164399707 | -0.176 | 99.7 | 88.3 | inactive |
| SCTR (secretin receptor) | SID164387242 | 0.105 | 43.6 | 46.9 | inactive |
| SCTR (secretin receptor) | SID164387243 | -0.0128 | 42.1 | 41.7 | inactive |
| SCTR (secretin receptor) | SID164387245 | 0.392 | 69.3 | 91 | inactive |
| SCTR (secretin receptor) | SID164387247 | 0.0983 | 39.9 | 42.7 | inactive |
| CLN8 (CLN8 transmembrane ER and ERGIC protein) | SID164363549 | -0.447 | 84.5 | 62 | inactive |
| CLN8 (CLN8 transmembrane ER and ERGIC protein) | SID164363552 | -0.151 | 63.8 | 57.4 | inactive |
| CLN8 (CLN8 transmembrane ER and ERGIC protein) | SID164363555 | -0.32 | 45.6 | 36.5 | inactive |
| CLN8 (CLN8 transmembrane ER and ERGIC protein) | SID164363557 | -0.114 | 91.8 | 84.9 | inactive |
| CSF2 (colony stimulating factor 2) | SID164359991 | 0.239 | 74.9 | 88.4 | inactive |
| CSF2 (colony stimulating factor 2) | SID164359992 | -0.292 | 68.9 | 56.3 | inactive |
| CSF2 (colony stimulating factor 2) | SID164359993 | -0.772 | 56.8 | 33.2 | inactive |
| CSF2 (colony stimulating factor 2) | SID164359996 | -0.108 | 73.4 | 68.1 | inactive |
| GPR135 (G protein-coupled receptor 135) | SID164503303 | -0.133 | 65.8 | 60 | inactive |
| GPR135 (G protein-coupled receptor 135) | SID164503304 | -0.344 | 94.8 | 74.7 | inactive |
| GPR135 (G protein-coupled receptor 135) | SID164503306 | -0.164 | 17.6 | 15.7 | inactive |
| GPR135 (G protein-coupled receptor 135) | SID164503307 | -0.334 | 91.3 | 72.5 | inactive |
| MYF5 (myogenic factor 5) | SID164376696 | -0.278 | 104 | 85.9 | inactive |
| MYF5 (myogenic factor 5) | SID164376697 | 0 | 64.4 | 64.4 | inactive |
| MYF5 (myogenic factor 5) | SID164376698 | -0.0466 | 101 | 97.4 | inactive |
| MYF5 (myogenic factor 5) | SID164376700 | 0.00845 | 66.4 | 66.8 | inactive |

Limited to “log2 vehicle/camptothecin viability” (5 entries from above):
ALDH1L1 (aldehyde dehydrogenase 1 family member L1) [SID164413703]	-0.244
ALDH1L1 (aldehyde dehydrogenase 1 family member L1) [SID164413704]	0.162
ALDH1L1 (aldehyde dehydrogenase 1 family member L1) [SID164413708]	-0.0303
ALDH1L1 (aldehyde dehydrogenase 1 family member L1) [SID164413710]	0.0919
UTS2B (urotensin 2B) [SID164606634]	-0.144
